Reference: patent US12673953B2, “Process for preparing an amorphous form of 2-[3-[4-amino-3-(2-fluoro-4-phenoxyphenyl)pyrazolo[3,4-d]pyrimidin-1-yl]piperidine-1-carbonyl]-4-methyl-4-[4-(oxetan-3-yl)piperazin-1-yl]pent-2-enenitrile” (Principia Biopharma Inc., priority 2019, dated 2026)
Like-named read-outs stand apart in the source and are kept apart here.

Assay: Residual solvent analysis by gas chromatography-mass spectrometry
Type: physicochemical
Excerpt: Retention of process solvents (i.e., residual solvents) depends on van der Waals' forces that are unique to and an inherent property of each molecule. Additionally, solvent retention depends how the API solid is formed, isolated, washed, and dried (i.e., during the manufacturing process). Because residual solvents may pose safety risks, pharmaceutical processes should be designed to minimize residual solvent levels (e.g., to result in residual solvent levels below the limits established in the ICH guidelines). Residual solvent analysis was performed using gas chromatography-mass spectrometry. The residual solvent levels in solid forms of Compound (I) prepared by spray drying processes described herein and precipitation processes described herein are provided in Table 2.

[1] = listed as Compound (I) produced by a spray drying process described herein
[2] = result in words, Example 3 Precipitation Process A

SMILES | Residual solvent level: Heptane (n-Heptane) | Residual solvent level: Isopropyl acetate | Residual solvent level: Methanol (result in words) | further results
CC(C)(C=C(C#N)C(=O)N1CCCC(n2nc(-c3ccc(Oc4ccccc4)cc3F)c3c(N)ncnc32)C1)N1CCN(C2COC2)CC1 (stereo not shown) [Compound (I) free base, 2-[3-[4-amino-3-(2-fluoro-4-phenoxy-phenyl)pyrazolo[3,4-d]pyrimidin-1-yl]piperidine-1-carbonyl]-4-methyl-4-[4-(oxetan-3-yl)piperazin-1-yl]pent-2-enenitrile] | < 0.05% | below 0.5% |  | 
CC(C)(C=C(C#N)C(=O)N1CCCC(n2nc(-c3ccc(Oc4ccccc4)cc3F)c3c(N)ncnc32)C1)N1CCN(C2COC2)CC1 (stereo not shown) [Compound (I) prepared by a spray drying process described he] [2-[3-[4-amino-3-(2-fluoro-4-phenoxy-phenyl)pyrazolo[3,4-d]pyrimidin-1-yl]piperidine-1-carbonyl]-4-methyl-4-[4-(oxetan-3-yl)piperazin-1-yl]pent-2-enenitrile] |  |  |  | Residual solvent level: Methanol: 302 ppm; Residual solvent level: Heptane (n-Heptane) [1]: 426 ppm; Residual solvent level: Isopropyl acetate [1]: 3081 ppm
CC(C)(C=C(C#N)C(=O)N1CCCC(n2nc(-c3ccc(Oc4ccccc4)cc3F)c3c(N)ncnc32)C1)N1CCN(C2COC2)CC1 (stereo not shown) [Compound (I) produced by a precipitation process described h] [2-[3-[4-amino-3-(2-fluoro-4-phenoxy-phenyl)pyrazolo[3,4-d]pyrimidin-1-yl]piperidine-1-carbonyl]-4-methyl-4-[4-(oxetan-3-yl)piperazin-1-yl]pent-2-enenitrile] | <500 ppm | <500 ppm | None | 
CC(C)(C=C(C#N)C(=O)N1CCCC(n2nc(-c3ccc(Oc4ccccc4)cc3F)c3c(N)ncnc32)C1)N1CCN(C2COC2)CC1 (stereo not shown) [crude Compound (I) (before spray drying), 2-[3-[4-amino-3-(2-fluoro-4-phenoxy-phenyl)pyrazolo[3,4-d]pyrimidin-1-yl]piperidine-1-carbonyl]-4-methyl-4-[4-(oxetan-3-yl)piperazin-1-yl]pent-2-enenitrile] | 5.00% | 2.00% | None | 
CC(C)(C=C(C#N)C(=O)N1CCCC(n2nc(-c3ccc(Oc4ccccc4)cc3F)c3c(N)ncnc32)C1)N1CCN(C2COC2)CC1 (stereo not shown) [free base of Compound (I), 2-[3-[4-amino-3-(2-fluoro-4-phenoxy-phenyl)pyrazolo[3,4-d]pyrimidin-1-yl]piperidine-1-carbonyl]-4-methyl-4-[4-(oxetan-3-yl)piperazin-1-yl]pent-2-enenitrile] |  |  |  | Residual solvent level: Isopropyl acetate [2]: no detectible levels; Residual solvent level: heptane [2]: no detectible levels
